The other results are listed elsewhere or left out. Single values are uncertain, as repeats are few or missing.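 Imaging used 1,536-well plates; nuclei positive for cleaved PARP by antibody were divided by total DNA-stained nuclei to yield the apoptosis fraction. Doses for screening kept most cells viable, and cell lines differ markedly in resting and induced cleaved-PARP levels.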

Test systems include WM115; WM1716; WM1745; WM3526; WM3619; WM451Lu.
Holding throughout (assay): cleaved PARP positive nuclei fraction relative to DMSO control; melanoma cells; higher = more apoptosis
Holding throughout (settings): library dose: low library concentration; 72 h

`C[C@@H](N)c1ccc(C(=O)Nc2ccnc3[nH]ccc23)cc1` + Cn1c(Nc2ccc(C(F)(F)F)cc2)nc2cc(Oc3ccnc(-c4ncc(C(F)(F)F)[nH]4)c3)ccc21 [CHIR265] (first compound 0.4 µM, partner dose 0.08 µM): the “cleaved PARP positive nuclei fraction” value in the experiment on WM115 was 369%; with WM1716 it was 87%; with WM1745 it was 173%; in the experiment on WM3526, 40.8%; in the experiment on WM3619, 115%; in the experiment on WM451Lu, 61.4%.
`NC(=O)c1ccc(N(C(N)=O)c2c(F)cccc2F)nc1-c1ccc(F)cc1F` + COc1cc(N2CCC(N3CCN(C)CC3)CC2)ccc1Nc1ncc(Cl)c(Nc2ccccc2S(=O)(=O)C(C)C)n1 [NVP-TAE684] (first compound 0.4 µM, partner dose 0.08 µM): the “cleaved PARP positive nuclei fraction” value in the experiment on WM115 was 47%; in the experiment on WM1716 it was 25.2%; in the experiment with WM1745, 103%; in the experiment with WM3526 it was 159%; with WM3619 it was 84.8%; in the experiment on WM451Lu, 32.7%.
Turning to `C[C@]1(O)C[C@@H](c2nc(-c3ccc4ccc(-c5ccccc5)nc4c3)c3c(N)nccn32)C1` + COc1ccc(COc2ccc(Cc3cnc(N)nc3N)cc2OC)cc1 [GW2580] (first compound 0.4 µM, partner dose 1 µM), the “cleaved PARP positive nuclei fraction” value with WM115 stood at 106%; in the experiment on WM1716, 48.5%; with WM1745, 119%; in the experiment on WM3526 it was 84.1%; with WM3619 it was 89.9%; in the experiment on WM451Lu it was 214%.
Regarding `CN(c1ncccc1CNc1nc(Nc2ccc3c(c2)CC(=O)N3)ncc1C(F)(F)F)S(C)(=O)=O` + CC1(C)NC(=O)N(c2ccc([N+](=O)[O-])c(C(F)(F)F)c2)C1=O [nilutamide] (first compound 0.08 µM, partner dose 1 µM), the “cleaved PARP positive nuclei fraction” value in the experiment with WM115 was 150%; with WM1716, 103%; with WM1745, 102%; with WM3526, 67.3%; in the experiment with WM3619 it was 95.4%; in the experiment on WM451Lu it was 65.6%.
As for `COc1ccc(C2=N[C@@H](c3ccc(Cl)cc3)[C@@H](c3ccc(Cl)cc3)N2C(=O)N2CCNC(=O)C2)c(OC(C)C)c1` [Nutlin-3] + CS(=O)(=O)c1ccc(C(=O)Nc2ccc(Cl)c(-c3ccccn3)c2)c(Cl)c1 [vismodegib] (first compound 0.1 µM, partner dose 1 µM), the “cleaved PARP positive nuclei fraction” value in the experiment with WM115 amounted to 82.7%; in the experiment on WM1716, 35.9%; with WM1745 it was 83.7%; in the experiment with WM3526, 168%; in the experiment on WM3619 it was 103%; in the experiment on WM451Lu it was 46%.
`C[C@]1(O)C[C@@H](c2nc(-c3ccc4ccc(-c5ccccc5)nc4c3)c3c(N)nccn32)C1` + COc1cc(N2CCC(N3CCN(C)CC3)CC2)ccc1Nc1ncc(Cl)c(Nc2ccccc2S(=O)(=O)C(C)C)n1 [NVP-TAE684] (first compound 0.4 µM, partner dose 0.08 µM): the “cleaved PARP positive nuclei fraction” value was found to be 95.2% in the experiment on WM115; 89% with WM1716; 109% with WM1745; 102% in the experiment on WM3526; 84.7% in the experiment with WM3619; 66.7% in the experiment on WM451Lu.
For the compound `CS(=O)(=O)c1ccc(C(=O)Nc2ccc(Cl)c(-c3ccccn3)c2)c(Cl)c1` [vismodegib] + O=C(O)c1ccc2c(c1)nc(Nc1cccc(Cl)c1)c1ccncc12 [CX4945] (first compound 1 µM, partner dose 0.4 µM), the “cleaved PARP positive nuclei fraction” value with WM115 was 62.3%; in the experiment with WM1716, 34.7%; in the experiment with WM1745 it was 93.4%; in the experiment on WM3526 it was 77.4%; with WM3619 it was 94.4%; in the experiment on WM451Lu, 43.1%.
With `C[C@@H](N)c1ccc(C(=O)Nc2ccnc3[nH]ccc23)cc1` + CC(C)(C)c1cnc(CSc2cnc(NC(=O)C3CCNCC3)s2)o1 [SNS-032] (first compound 0.4 µM, partner dose 0.01 µM), the “cleaved PARP positive nuclei fraction” value in the experiment on WM115 was 152%; with WM1716 it was 246%; with WM1745 it was 125%; with WM3526 it was 78.2%; in the experiment on WM3619, 201%; in the experiment on WM451Lu, 66.3%.
Consider `CN(c1ncccc1CNc1nc(Nc2ccc3c(c2)CC(=O)N3)ncc1C(F)(F)F)S(C)(=O)=O` + CN(C)S(=O)(=O)c1ccc2c(c1)/C(=C/c1cc3c([nH]1)CCCC3)C(=O)N2 [SU6656] (first compound 0.08 µM, partner dose 0.4 µM), for which the “cleaved PARP positive nuclei fraction” value with WM115 came to 394%; in the experiment on WM1716, 61.7%; in the experiment with WM1745, 112%; with WM3526 it was 48.2%; in the experiment on WM3619, 98.5%; with WM451Lu, 39.2%.
With `CC(=O)O[C@@]12CO[C@@H]1C[C@H](O)[C@@]1(C)C(=O)[C@H](O)C3=C(C)[C@@H](OC(=O)[C@H](O)[C@@H](NC(=O)OC(C)(C)C)c4ccccc4)C[C@@](O)([C@@H](OC(=O)c4ccccc4)[C@H]21)C3(C)C` [Docetaxel] + Cn1nnc2c(C(N)=O)ncn2c1=O [temozolomide] (first compound 0.0001 µM, partner dose 2 µM), the “cleaved PARP positive nuclei fraction” value in the experiment with WM115 turned out to be 762%; with WM1716, 214%; in the experiment with WM1745 it was 192%; in the experiment with WM3526, 463%; in the experiment on WM3619, 160%; with WM451Lu, 162%.
For `CCN(CC)CCNC(=O)c1c(C)[nH]c(/C=C2\C(=O)Nc3ccc(F)cc32)c1C` [sunitinib] + O=C(Nc1cccc(Cl)c1)Nc1ncc(CCNc2ncnc3ccsc23)s1 [SNS314] (first compound 0.4 µM, partner dose 0.0008 µM), the “cleaved PARP positive nuclei fraction” value in the experiment with WM115 stood at 302%; in the experiment with WM1716, 41.8%; with WM1745, 108%; in the experiment on WM3526, 64.1%; with WM3619, 63%; with WM451Lu, 231%.
Regarding `Cn1cnc2c(F)c(Nc3ccc(Br)cc3Cl)c(C(=O)NOCCO)cc21` [selumetinib] + O=c1cc(-c2cccc3c2Sc2ccccc2S3)oc(N2CCOCC2)c1 [KU55933] (first compound 0.015 µM, partner dose 1 µM), the “cleaved PARP positive nuclei fraction” value with WM115 was 169%; in the experiment on WM1716 it was 36%; in the experiment on WM1745, 85.6%; in the experiment on WM3526 it was 285%; with WM3619, 105%; with WM451Lu, 79.2%.

The record behind these values is the supplement of paper PMC4604168 (melanoma cell lines).
